Measured data: PubChem BioAssay AID602196 (INSERM, 2012)
Screen: 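Knock-downs that protect lung cancer cells from cisplatin or sensitise them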. Cell system: human A549 lung cancer cells. Reagent: siRNA pair against human genes. Duration: 48 h transfection before cisplatin; time from cisplatin to read-out not stated. Treatment: cisplatin at a dose killing half of control-siRNA cells; exact dose and duration not given. Measured: 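Shift in cisplatin death relative to control siRNA, from -50 (all cells die) to +50 (no cells die); siRNAs harmful on their own scored 0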. Direction: two-siRNA summed score (-2 to +2): higher = both siRNAs protect from cisplatin killing; -2 means both sensitise; mean protection from cisplatin (shift in death) and protection from cisplatin (shift in death), siRNA C and protection from cisplatin (shift in death), siRNA D: higher = protection from cisplatin killing. Active means: 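siRNAs harmful alone (LDH or WST-1) get 0; others get +1 for less and -1 for more cisplatin killing; genes are active when the two siRNAs give the same sign, summing to ±2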. Calls: active = both siRNAs shift cisplatin killing the same way; inactive = no consistent shift, or siRNA harmful alone.
This is a random part of about 23,000 reagents. In the full data, 455 (2%) are marked active. 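Active includes both protection and sensitisation; some change values fall well beyond the stated -50 to +50 range.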 A number with no mark means an inactive call. Reagent sequences are not shown. Not given: the amount of reagent.

| target gene | PubChem SID | two-siRNA summed score (-2 to +2) | mean protection from cisplatin (shift in death) (%) | protection from cisplatin (shift in death), siRNA C (%) | protection from cisplatin (shift in death), siRNA D (%) |
| --- | --- | --- | --- | --- | --- |
| NOL10 (nucleolar protein 10) | SID131511346 | 0 | 4.2 | 3.6 | 4.9 |
| CEACAM7 (CEA cell adhesion molecule 7) | SID131521448 | 1 | 13.5 | 8.5 | 18.5 |
| KCTD6 (potassium channel tetramerization domain containing 6) | SID131512232 | 0 | 5.2 | 4.2 | 6.3 |
| CD300E (CD300e molecule) | SID131503950 | 0 | -7.1 | -10.8 | -3.3 |
| PRG4 (proteoglycan 4) | SID131517674 | 0 | 14.3 | 14.2 | 14.4 |
| VSNL1 (visinin like 1) | SID131500533 | -1 | -22.8 | -29.7 | -15.9 |
| SLA (Src like adaptor) | SID131518564 | 0 | 21.7 | 24.1 | 19.4 |
| NOXRED1 (NADP dependent oxidoreductase domain containing 1) | SID131506549 | 0 | -1.3 | 2 | -4.7 |
| PIDD1 (p53-induced death domain protein 1) | SID131510824 | 0 | 3.7 | 14.2 | -6.9 |
| LANCL1 (LanC like glutathione S-transferase 1) | SID131506125 | 0 | -2 | -6.1 | 2.1 |
| KCNT1 (potassium sodium-activated channel subfamily T member 1) | SID131502858 | 0 | -22.4 | 2.3 | -47.2 |
| LINC02610 (long independently transcribed non-coding RNA 2610) | SID131521122 | 1 | 12.3 | 13.9 | 10.6 |
| LMO2 (LIM domain only 2) | SID131502693 | -1 | 2.2 | 20.8 | -16.3 |
| H2AP (H2A.P histone) | SID131511994 | 0 | 5 | 2.8 | 7.1 |
| PRPF19 (pre-mRNA processing factor 19) | SID131506104 | 0 | -2 | -10.6 | 6.6 |
| DEDD (death effector domain containing) | SID131507843 | 0 | 0.3 | -13.3 | 14 |
| STOML1 (stomatin like 1) | SID131501725 | -1 | -7.7 | 15 | -30.5 |
| TK2 (thymidine kinase 2) | SID131518510 | 0 | 20.7 | 7.5 | 33.9 |
| BPHL (biphenyl hydrolase like) | SID131509513 | 0 | 2.2 | 15.6 | -11.1 |
| POU4F1 (POU class 4 homeobox 1) | SID131522238 | 1 | 17.1 | 17.4 | 16.7 |
| KRTAP1-1 (keratin associated protein 1-1) | SID131506828 | 0 | -0.9 | 7.2 | -9 |
| LOC255326 | SID131512072 | 0 | 5.1 | 5 | 5.2 |
| EIF5A2 (eukaryotic translation initiation factor 5A2) | SID131521535 | 1 | 13.9 | 20.3 | 7.5 |
| LOC440554 | SID131511340 | 0 | 4.2 | 3 | 5.4 |
| MTERF3 (mitochondrial transcription termination factor 3) | SID131506264 | 0 | -1.8 | 0.7 | -4.3 |
| ADK (adenosine kinase) | SID131511735 | 0 | 4.7 | 14.5 | -5.2 |
| LOC440423 | SID131523162 | 2 (active) | 22.6 | 21.8 | 23.4 |
| BIVM (basic, immunoglobulin-like variable motif containing) | SID131501525 | -1 | -9.2 | 2.6 | -21 |
| RBAKDN (RBAK downstream neighbor) | SID131517555 | 0 | 13.8 | 1 | 26.7 |
| MID1 (midline 1) | SID131501440 | -1 | -9.7 | -13.2 | -6.3 |
| OR51F1 (olfactory receptor family 51 subfamily F member 1) | SID131507631 | 0 | 0.1 | -3.3 | 3.5 |
| POP4 (POP4 ribonuclease P/MRP subunit) | SID131520596 | 1 | 10.4 | 10.1 | 10.7 |
| XAGE2 (X antigen family member 2) | SID131506905 | 0 | -0.8 | 1.7 | -3.4 |
| TIMM22 (translocase of inner mitochondrial membrane 22) | SID131510337 | 0 | 3.1 | 4.7 | 1.6 |
| ZNF418 (zinc finger protein 418) | SID131515937 | 0 | 9.9 | 7.7 | 12.1 |
| PUM2 (pumilio RNA binding family member 2) | SID131515734 | 0 | 9.6 | 17.3 | 1.9 |
| GLI4 (GLI family zinc finger 4) | SID131516408 | 0 | 10.8 | 26.8 | -5.2 |
| MARS1 (methionyl-tRNA synthetase 1) | SID131502099 | -1 | -5.3 | 15.9 | -26.6 |
| NAT9 (N-acetyltransferase 9) | SID131505670 | 0 | -2.8 | -2.1 | -3.4 |
| LOC442717 | SID131514965 | 0 | 8.5 | 9.8 | 7.2 |
| TEX29 (testis expressed 29) | SID131509437 | 0 | 2.1 | 4.4 | -0.1 |
| GINS3 (GINS complex subunit 3) | SID131500325 | -2 (active) | -24.1 | -20.6 | -27.6 |
| RAB31 (RAB31, member RAS oncogene family) | SID131510655 | 0 | 3.5 | 15.9 | -8.9 |
| GAMT (guanidinoacetate N-methyltransferase) | SID131502166 | -1 | -4.8 | 19.7 | -29.3 |
| ARHGEF12 (Rho guanine nucleotide exchange factor 12) | SID131519763 | 1 | 7.3 | 16.9 | -2.3 |
| LOC199800 | SID131514517 | 0 | 7.9 | 32.9 | -17.1 |
| LOC442578 | SID131522364 | 1 | 17.9 | 8.8 | 27.1 |
| RPS8 (ribosomal protein S8) | SID131518840 | 0 | 31 | 35.6 | 26.3 |
| LOC120105 | SID131509346 | 0 | 2.1 | -6.4 | 10.5 |
| LOC389756 | SID131507968 | 0 | 0.5 | 4.6 | -3.6 |
| CCNF (cyclin F) | SID131505401 | 0 | -3.2 | -4.6 | -1.8 |
| GTF2IRD2 (GTF2I repeat domain containing 2) | SID131509866 | 0 | 2.6 | 2.4 | 2.8 |
| CPOX (coproporphyrinogen oxidase) | SID131515481 | 0 | 9.2 | 5.6 | 12.8 |
| SNAP91 (synaptosome associated protein 91) | SID131505214 | 0 | -3.5 | -2.9 | -4.2 |
| LOC402279 (glutamate metabotropic receptor 8 pseudogene) | SID131514743 | 0 | 8.2 | 7.9 | 8.5 |
| TEX44 (testis expressed 44) | SID131518700 | 0 | 24.6 | 48.5 | 0.7 |
| LOC440003 | SID131518567 | 0 | 21.8 | 28.4 | 15.2 |
| PHF10 (PHD finger protein 10) | SID131511906 | 0 | 4.9 | -0.9 | 10.7 |
| LOC391343 | SID131515427 | 0 | 9.2 | 11 | 7.3 |
| LOC441219 | SID131518351 | 0 | 18.6 | 12.7 | 24.5 |
| PLXND1 (plexin D1) | SID131507358 | 0 | -0.2 | -3.1 | 2.7 |
| MBOAT2 (membrane bound glycerophospholipid O-acyltransferase 2) | SID131523062 | 2 (active) | 18.3 | 22.9 | 13.7 |
| LOC113386 | SID131503718 | 0 | -8.2 | -9.2 | -7.2 |
| LOC441751 | SID131521089 | 1 | 12.2 | -2.2 | 26.5 |
| GTF2H3 (general transcription factor IIH subunit 3) | SID131510773 | 0 | 3.6 | 5.5 | 1.8 |
| TSC22D4 (TSC22 domain family member 4) | SID131511835 | 0 | 4.8 | 7.8 | 1.8 |
| LOC391437 | SID131518268 | 0 | 17.7 | 17.4 | 18 |
| TRIM25 (tripartite motif containing 25) | SID131519136 | 1 | 2.8 | -16.3 | 22 |
| CCDC47 (coiled-coil domain containing 47) | SID131502015 | -1 | -5.9 | 2.2 | -14 |
| TIAM1 (TIAM Rac1 associated GEF 1) | SID131511352 | 0 | 4.3 | 0.7 | 7.8 |
| SLC7A9 | SID131512670 | 0 | 5.7 | 1.2 | 10.3 |
| FBXW8 (F-box and WD repeat domain containing 8) | SID131502844 | 0 | -23.7 | -28.9 | -18.6 |
| ANKRD16 (ankyrin repeat domain 16) | SID131522918 | 2 (active) | 10 | 11.2 | 8.7 |

Just “mean protection from cisplatin (shift in death) (%)”, for 8 of the entries above:
OR51F1 (olfactory receptor family 51 subfamily F member 1) [SID131507631] = 0.1
POP4 (POP4 ribonuclease P/MRP subunit) [SID131520596] = 10.4
XAGE2 (X antigen family member 2) [SID131506905] = -0.8
TIMM22 (translocase of inner mitochondrial membrane 22) [SID131510337] = 3.1
ZNF418 (zinc finger protein 418) [SID131515937] = 9.9
PUM2 (pumilio RNA binding family member 2) [SID131515734] = 9.6
GLI4 (GLI family zinc finger 4) [SID131516408] = 10.8
MARS1 (methionyl-tRNA synthetase 1) [SID131502099] = -5.3
